# Source: patent US20080207532A1, “Use of Nordihydroguaiaretic Acid Derivatives in the Treatment of Drug Resistant Cancer, Viral and Microbial Infection” (Johns Hopkins University, priority 2004, published 2008)
# Values joined by “and” are separate entries in the source; they are usually repeats but may differ in a detail not shown here. Identical values can stand only once.
# Test system: NCI/ADR-RES cells
# Assay: SRB cytotoxicity assay with median-effect / combination index analysis
# Format: cell-based, human
# Conditions: three days
row,Structure (SMILES),"m, shape of the dose-effect curve"
1,"COc1ccc(C[C@@H](C)[C@@H](C)Cc2ccc(OC)c(OC)c2)cc1OC [M4N, tetra-o-methyl nordihydroguaiaretic acid]",0.91 and 0.52
2,"COc1cccc2c1C(=O)c1c(O)c3c(c(O)c1C2=O)C[C@@](O)(C(=O)CO)C[C@@H]3O[C@H]1C[C@H](N)[C@H](O)[C@H](C)O1 [Dox, doxorubicin]",0.49
3,CC(=O)O[C@H]1C(=O)[C@@]2(C)[C@H]([C@H](OC(=O)c3ccccc3)[C@]3(O)C[C@H](OC(=O)[C@H](O)[C@@H](NC(=O)c4ccccc4)c4ccccc4)C(C)=C1C3(C)C)[C@]1(OC(C)=O)CO[C@@H]1C[C@@H]2O [paclitaxel],0.59
